Laboratory results: paper doi:10.1101/2025.11.24.690135
No constants are given. Whether binding was seen depends on the method and setting. In cells and extracts the contact can be indirect. Some results given as binding are weak or reduced against the parent protein; the word gives no strength.

By UniProt entry, the sequences of proteins in these tests, tags left out.
UniProt O43524, whole entry: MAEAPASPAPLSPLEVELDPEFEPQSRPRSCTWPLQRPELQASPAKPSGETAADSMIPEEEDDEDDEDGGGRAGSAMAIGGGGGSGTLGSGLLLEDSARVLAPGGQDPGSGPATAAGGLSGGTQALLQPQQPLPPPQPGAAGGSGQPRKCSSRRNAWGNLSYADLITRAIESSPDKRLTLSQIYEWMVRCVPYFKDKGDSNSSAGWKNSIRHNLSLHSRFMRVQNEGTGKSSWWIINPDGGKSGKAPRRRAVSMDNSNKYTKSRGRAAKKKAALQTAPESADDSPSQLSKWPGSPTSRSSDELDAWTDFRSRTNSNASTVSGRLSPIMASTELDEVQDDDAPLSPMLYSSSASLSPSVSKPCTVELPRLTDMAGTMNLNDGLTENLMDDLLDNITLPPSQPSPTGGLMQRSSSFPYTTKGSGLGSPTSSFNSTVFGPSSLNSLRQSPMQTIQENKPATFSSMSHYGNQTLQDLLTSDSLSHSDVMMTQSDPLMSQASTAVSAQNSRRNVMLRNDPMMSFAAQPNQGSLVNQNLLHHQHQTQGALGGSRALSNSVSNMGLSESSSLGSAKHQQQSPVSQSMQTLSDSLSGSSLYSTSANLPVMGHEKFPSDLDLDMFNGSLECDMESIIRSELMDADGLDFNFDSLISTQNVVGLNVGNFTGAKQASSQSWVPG
UniProt Q6R327, whole entry: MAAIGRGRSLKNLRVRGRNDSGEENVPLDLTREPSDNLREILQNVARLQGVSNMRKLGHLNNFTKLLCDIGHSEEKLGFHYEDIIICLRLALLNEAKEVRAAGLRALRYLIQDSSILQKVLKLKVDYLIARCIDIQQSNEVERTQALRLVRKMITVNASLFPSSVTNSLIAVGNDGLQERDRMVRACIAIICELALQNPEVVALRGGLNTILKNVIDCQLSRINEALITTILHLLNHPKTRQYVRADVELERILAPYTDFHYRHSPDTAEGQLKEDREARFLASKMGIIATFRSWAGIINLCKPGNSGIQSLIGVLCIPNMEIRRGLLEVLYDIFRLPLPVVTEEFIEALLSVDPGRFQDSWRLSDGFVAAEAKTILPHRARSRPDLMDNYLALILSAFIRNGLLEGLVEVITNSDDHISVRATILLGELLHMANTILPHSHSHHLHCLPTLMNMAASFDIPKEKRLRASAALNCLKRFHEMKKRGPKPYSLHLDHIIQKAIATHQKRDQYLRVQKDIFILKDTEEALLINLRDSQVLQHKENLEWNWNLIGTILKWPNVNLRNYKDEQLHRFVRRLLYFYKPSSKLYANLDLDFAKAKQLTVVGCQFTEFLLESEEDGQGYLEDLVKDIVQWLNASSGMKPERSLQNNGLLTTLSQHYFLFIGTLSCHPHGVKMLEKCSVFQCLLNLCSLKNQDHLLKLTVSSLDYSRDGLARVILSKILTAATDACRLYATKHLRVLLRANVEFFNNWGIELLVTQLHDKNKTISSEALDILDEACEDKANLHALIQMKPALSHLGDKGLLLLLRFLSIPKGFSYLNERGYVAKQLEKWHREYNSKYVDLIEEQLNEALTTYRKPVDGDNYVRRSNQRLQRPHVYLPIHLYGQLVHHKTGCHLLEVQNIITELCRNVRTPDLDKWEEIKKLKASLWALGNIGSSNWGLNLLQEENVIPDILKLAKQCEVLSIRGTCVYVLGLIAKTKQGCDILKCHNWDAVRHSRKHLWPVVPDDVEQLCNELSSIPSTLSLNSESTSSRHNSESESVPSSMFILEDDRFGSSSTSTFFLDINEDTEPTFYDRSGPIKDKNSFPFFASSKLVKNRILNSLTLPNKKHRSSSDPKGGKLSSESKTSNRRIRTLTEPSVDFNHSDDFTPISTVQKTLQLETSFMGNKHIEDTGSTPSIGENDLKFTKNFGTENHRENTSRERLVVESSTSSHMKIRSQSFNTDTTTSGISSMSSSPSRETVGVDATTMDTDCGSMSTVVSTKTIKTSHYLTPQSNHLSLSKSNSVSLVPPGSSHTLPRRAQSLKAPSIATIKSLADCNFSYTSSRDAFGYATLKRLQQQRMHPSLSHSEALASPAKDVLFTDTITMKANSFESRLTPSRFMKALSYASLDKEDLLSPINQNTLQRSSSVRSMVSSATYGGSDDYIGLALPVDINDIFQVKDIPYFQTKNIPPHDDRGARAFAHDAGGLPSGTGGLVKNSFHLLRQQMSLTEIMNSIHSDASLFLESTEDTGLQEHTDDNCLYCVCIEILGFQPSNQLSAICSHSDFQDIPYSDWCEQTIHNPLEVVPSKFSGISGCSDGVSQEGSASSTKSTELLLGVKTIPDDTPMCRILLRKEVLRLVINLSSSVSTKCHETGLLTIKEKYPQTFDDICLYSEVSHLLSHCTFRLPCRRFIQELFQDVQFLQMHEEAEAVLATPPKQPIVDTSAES
UniProt O14746, whole entry: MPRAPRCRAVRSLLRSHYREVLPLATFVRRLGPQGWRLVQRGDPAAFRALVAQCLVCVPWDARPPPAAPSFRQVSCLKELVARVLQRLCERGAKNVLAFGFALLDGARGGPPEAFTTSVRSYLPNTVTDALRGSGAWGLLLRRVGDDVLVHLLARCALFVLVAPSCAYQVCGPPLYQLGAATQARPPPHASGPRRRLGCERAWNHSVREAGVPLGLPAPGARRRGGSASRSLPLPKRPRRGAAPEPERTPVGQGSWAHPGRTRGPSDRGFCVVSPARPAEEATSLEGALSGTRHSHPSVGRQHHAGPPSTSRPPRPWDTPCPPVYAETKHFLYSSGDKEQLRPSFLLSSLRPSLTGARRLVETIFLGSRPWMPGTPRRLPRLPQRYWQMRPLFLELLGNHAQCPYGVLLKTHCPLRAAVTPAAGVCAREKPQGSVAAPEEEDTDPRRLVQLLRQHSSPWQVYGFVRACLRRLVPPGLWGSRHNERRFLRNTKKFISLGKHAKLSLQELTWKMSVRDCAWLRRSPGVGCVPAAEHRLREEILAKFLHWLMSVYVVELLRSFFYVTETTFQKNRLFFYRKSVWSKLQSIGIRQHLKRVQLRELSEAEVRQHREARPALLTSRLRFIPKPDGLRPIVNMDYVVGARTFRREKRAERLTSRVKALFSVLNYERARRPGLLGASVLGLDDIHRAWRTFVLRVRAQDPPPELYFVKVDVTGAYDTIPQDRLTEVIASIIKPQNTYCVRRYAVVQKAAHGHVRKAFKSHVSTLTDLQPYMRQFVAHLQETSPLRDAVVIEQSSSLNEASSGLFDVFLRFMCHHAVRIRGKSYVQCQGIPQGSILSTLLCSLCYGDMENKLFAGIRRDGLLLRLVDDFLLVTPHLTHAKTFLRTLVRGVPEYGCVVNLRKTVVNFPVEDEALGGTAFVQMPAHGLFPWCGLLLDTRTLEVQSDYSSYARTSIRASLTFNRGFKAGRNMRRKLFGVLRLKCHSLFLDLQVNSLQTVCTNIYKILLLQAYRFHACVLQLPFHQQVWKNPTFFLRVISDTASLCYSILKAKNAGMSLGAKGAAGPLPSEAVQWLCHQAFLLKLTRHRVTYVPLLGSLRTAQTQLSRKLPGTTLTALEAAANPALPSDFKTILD
UniProt P18848, whole entry: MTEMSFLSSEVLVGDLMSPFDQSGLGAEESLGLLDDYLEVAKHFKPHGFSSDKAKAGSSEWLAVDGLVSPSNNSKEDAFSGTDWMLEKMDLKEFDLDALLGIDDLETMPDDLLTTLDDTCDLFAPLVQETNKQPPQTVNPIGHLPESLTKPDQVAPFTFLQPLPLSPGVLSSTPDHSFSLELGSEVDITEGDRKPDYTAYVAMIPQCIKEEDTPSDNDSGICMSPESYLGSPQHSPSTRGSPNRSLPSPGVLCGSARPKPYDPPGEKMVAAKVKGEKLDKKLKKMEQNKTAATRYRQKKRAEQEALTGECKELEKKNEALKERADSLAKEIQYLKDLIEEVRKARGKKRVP
UniProt Q9BPZ7, whole entry: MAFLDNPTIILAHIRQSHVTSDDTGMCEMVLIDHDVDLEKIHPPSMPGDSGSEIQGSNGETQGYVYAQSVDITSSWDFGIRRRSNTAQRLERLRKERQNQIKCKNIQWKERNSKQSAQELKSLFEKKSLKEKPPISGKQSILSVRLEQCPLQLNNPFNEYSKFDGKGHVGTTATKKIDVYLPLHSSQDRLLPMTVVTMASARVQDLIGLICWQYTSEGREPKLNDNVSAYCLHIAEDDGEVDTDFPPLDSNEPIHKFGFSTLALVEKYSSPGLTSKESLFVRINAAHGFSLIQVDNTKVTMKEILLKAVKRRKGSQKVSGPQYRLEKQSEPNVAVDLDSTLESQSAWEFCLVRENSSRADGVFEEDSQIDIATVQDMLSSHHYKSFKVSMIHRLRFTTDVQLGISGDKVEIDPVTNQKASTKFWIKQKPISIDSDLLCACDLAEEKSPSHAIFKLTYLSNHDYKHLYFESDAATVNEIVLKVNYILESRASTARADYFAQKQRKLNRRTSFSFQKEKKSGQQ
UniProt Q9NT62, whole entry: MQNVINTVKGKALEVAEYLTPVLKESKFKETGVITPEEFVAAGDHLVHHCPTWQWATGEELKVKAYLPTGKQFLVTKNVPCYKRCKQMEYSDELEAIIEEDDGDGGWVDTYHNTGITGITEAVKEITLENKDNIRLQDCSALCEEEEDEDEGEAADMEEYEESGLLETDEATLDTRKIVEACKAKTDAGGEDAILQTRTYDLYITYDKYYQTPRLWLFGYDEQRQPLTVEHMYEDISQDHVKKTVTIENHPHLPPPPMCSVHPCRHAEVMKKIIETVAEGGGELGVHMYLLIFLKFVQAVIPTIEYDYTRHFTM
UniProt P31749, whole entry: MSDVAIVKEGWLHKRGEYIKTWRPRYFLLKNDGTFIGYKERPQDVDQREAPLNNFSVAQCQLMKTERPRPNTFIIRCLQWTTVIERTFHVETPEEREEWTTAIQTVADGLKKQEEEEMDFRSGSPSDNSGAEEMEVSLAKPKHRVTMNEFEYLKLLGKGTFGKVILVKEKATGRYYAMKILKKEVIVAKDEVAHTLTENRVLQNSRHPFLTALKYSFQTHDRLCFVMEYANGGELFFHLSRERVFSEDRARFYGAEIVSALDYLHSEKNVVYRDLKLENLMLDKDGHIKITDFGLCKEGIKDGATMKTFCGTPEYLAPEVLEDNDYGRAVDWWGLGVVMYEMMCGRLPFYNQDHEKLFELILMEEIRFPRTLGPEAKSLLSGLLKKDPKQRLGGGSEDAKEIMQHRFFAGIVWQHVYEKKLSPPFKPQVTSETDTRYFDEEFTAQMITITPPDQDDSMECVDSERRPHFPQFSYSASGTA
UniProt P01106, whole entry: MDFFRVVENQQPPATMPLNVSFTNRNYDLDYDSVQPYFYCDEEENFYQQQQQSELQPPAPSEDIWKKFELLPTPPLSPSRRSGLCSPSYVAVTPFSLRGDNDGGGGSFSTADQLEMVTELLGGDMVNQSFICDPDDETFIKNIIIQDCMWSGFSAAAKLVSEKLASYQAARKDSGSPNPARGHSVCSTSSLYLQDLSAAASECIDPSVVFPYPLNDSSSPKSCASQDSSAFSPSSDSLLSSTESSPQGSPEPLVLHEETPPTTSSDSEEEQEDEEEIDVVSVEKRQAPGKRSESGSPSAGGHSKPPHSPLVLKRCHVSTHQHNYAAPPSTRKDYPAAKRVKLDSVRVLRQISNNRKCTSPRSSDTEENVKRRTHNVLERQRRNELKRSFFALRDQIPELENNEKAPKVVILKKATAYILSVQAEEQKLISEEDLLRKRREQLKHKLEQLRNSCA

What was measured:
[1] = molecular target: forkhead box O3, endogenous (human (endogenous in iPSC-RPE)) (UniProt O43524); assay: co-IP
[2] = molecular target: Regulatory-associated protein of mTOR, endogenous (human (endogenous in iPSC-RPE)) (UniProt Q8N122); assay: co-IP
[3] = molecular target: Rapamycin-insensitive companion of mammalian target of rapamycin, endogenous (human (endogenous in iPSC-RPE)) (UniProt Q6R327); assay: co-IP
[4] = molecular target: telomerase reverse transcriptase, endogenous (human (endogenous in iPSC-RPE)) (UniProt O14746); assay: co-IP
[5] = molecular target: activating transcription factor 4, endogenous (human (endogenous in iPSC-RPE)) (UniProt P18848); assay: co-IP
[6] = molecular target: MAPKAP1 (mTORC2 subunit), endogenous (human (endogenous in iPSC-RPE)), Q9BPZ7; assay: co-IP; details: remark: other sources report otherwise
Magenta-MAPKAP1, Q9BPZ7 = assay: FRET or BRET; details: remark: other sources report otherwise

For “telomerase reverse transcriptase, endogenous (from UniProt O14746 1-1132)”, which binding [1] is on record?
The binding was “no binding”.

What does the source list for “AKT serine/threonine kinase 2, overexpressed (AKT2 OE) (from UniProt P31751 1-481)”?
binding [2]: binds; binding [3]: binds weakly

How did the binding [4] turn out when “forkhead box O3, endogenous (from UniProt O43524 1-673)” was run?
Its binding is “no binding”.

“autophagy related 3, endogenous (from UniProt Q9NT62 1-314)” was tested. Which binding [5] did it give?
The binding was “binds”.

“AKT serine/threonine kinase 1, overexpressed (AKT1 OE) (from UniProt P31749 1-480)” was tested. Which binding [2] did it give?
The binding was “binds weakly”.

And the binding [3]?
The binding was “binds”.

What does the source list for “MYC, endogenous (from UniProt P01106 1-454)”?
binding [4]: binds; binding [1]: binds

B1: autophagy related 4B cysteine peptidase, endogenous (protein, UniProt Q9Y4P1 1-393)
chain: MDAATLTYDTLRFAEFEDFPETSEPVWILGRKYSIFTEKDEILSDVASRLWFTYRKNFPAIGGTGPTSDTGWGCMLRCGQMIFAQALVCRHLGRDWRWTQRKRQPDSYFSVLNAFIDRKDSYYSIHQIAQMGVGEGKSIGQWYGPNTVAQVLKKLAVFDTWSSLAVHIAMDNTVVMEEIRRLCRTSVPCAGATAFPADSDRHCNGFPAGAEVTNRPSPWRPLVLLIPLRLGLTDINEAYVETLKHCFMMPQSLGVIGGKPNSAHYFIGYVGEELIYLDPHTTQPAVEPTDGCFIPDESFHCQHPPCRMSIAELDPSIAVGFFCKTEDDFNDWCQQVKKLSLLGGALPMFELVELQPSHLACPDVLNLSLDSSDVERLERFFDSEDEDFEILSL
How did the binding [5] turn out when B1 was run?
Its binding is “binds”.

B2: AKT serine/threonine kinase 2, overexpressed (AKT2 OE), P31751 1-481 (protein)
chain: MNEVSVIKEGWLHKRGEYIKTWRPRYFLLKSDGSFIGYKERPEAPDQTLPPLNNFSVAECQLMKTERPRPNTFVIRCLQWTTVIERTFHVDSPDEREEWMRAIQMVANSLKQRAPGEDPMDYKCGSPSDSSTTEEMEVAVSKARAKVTMNDFDYLKLLGKGTFGKVILVREKATGRYYAMKILRKEVIIAKDEVAHTVTESRVLQNTRHPFLTALKYAFQTHDRLCFVMEYANGGELFFHLSRERVFTEERARFYGAEIVSALEYLHSRDVVYRDIKLENLMLDKDGHIKITDFGLCKEGISDGATMKTFCGTPEYLAPEVLEDNDYGRAVDWWGLGVVMYEMMCGRLPFYNQDHERLFELILMEEIRFPRTLSPEAKSLLAGLLKKDPKQRLGGGPSDAKEVMEHRFFLSINWQDVVQKKLLPPFKPQVTSEVDTRYFDDEFTAQSITITPPDRYDSLGLLELDQRTHFPQFSYSASIRE
For B2, which binding [6] is on record?
Its binding is “no binding”.

B3: RFP-AKT2, P31751 1-481 (protein)
chain: B2 chain
B3 was tested. Which binding (Magenta-MAPKAP1, Q9BPZ7) did it give?
The binding was “no binding”.
